Reference: patent publication US20250257130A1 (NONA BIOSCIENCES SUZHOU, published 2025)
Residue numbers refer to the chain shown, from its start. No constants are given. Whether binding was seen depends on the method and setting. Some results given as binding are weak or reduced against the parent protein; the word gives no strength.

Sequences of proteins named here, by UniProt entry; tags and fusion partners are left off. Residues count along the entry.
UniProt Q01973, residues 30-937: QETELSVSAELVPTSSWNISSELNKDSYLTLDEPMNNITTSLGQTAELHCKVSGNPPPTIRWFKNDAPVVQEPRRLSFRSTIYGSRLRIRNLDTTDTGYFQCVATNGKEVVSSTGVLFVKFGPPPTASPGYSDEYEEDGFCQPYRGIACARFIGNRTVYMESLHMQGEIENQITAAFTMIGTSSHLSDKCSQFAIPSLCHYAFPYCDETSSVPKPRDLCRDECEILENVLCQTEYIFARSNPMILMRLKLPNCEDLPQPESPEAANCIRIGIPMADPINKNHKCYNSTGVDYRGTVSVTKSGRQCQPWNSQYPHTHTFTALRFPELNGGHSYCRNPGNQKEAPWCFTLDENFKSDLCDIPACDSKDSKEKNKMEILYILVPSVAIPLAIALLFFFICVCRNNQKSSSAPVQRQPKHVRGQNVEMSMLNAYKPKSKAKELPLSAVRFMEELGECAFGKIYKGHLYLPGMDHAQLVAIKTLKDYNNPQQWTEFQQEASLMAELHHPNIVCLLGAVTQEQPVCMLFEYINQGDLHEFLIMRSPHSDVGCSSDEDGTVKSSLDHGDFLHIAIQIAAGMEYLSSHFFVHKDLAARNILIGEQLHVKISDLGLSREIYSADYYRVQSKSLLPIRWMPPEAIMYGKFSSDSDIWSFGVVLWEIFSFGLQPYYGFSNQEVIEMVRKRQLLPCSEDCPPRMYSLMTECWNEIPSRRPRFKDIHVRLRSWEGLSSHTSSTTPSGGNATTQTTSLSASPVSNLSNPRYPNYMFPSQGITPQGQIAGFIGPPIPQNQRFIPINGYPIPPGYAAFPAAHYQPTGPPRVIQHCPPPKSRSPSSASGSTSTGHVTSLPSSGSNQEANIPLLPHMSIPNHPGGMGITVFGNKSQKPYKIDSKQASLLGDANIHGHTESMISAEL

B1: PR007413 (antibody, V domains shown)
VH: EVQLVESGGGLVKPGGSLRLSCAASGFTFSDFYMSWIRQAPGKGLEWISYINTRGSPIGYADSVKGRFTISRDNAKNSLYLQMNSLRAEDTAIYYCARDMPSSSSDWVDLQFDYWGQGTLVTVSS
notes: bivalent form (HCAb) variant of PR005340, no light chain
B2: PR007414 (antibody, V domains shown)
VH: B1 VH with N52S, T53S, R54S, P57T, I58R, G59Y
notes: as for B1
B3: PR007415 (antibody, V domains shown)
VH: B1 VH with N52D, T53S, R54S, S56R, I58L, G59A
notes: as for B1
B4: PR007416 (antibody, V domains shown)
VH: B1 VH with M100I
notes: as for B1
B5: PR007418 (antibody, V domains shown)
VH: B1 VH with N52D, T53S, R54S, S56R, I58L, G59A, M100I
notes: as for B1
B6: PR007417 (antibody, V domains shown)
VH: B1 VH with N52S, T53S, R54S, P57T, I58R, G59Y, M100I
notes: as for B1
B7: PR005337 (antibody, human IgG1, V domains shown)
VH: EVQLVESGGGLVKPGGSLRLSCAASGFIFSDYYMSWIRQAPGKGLEWVSYISSSGSTIHYADSVKGRFTVSRDNAKNSLYLQMNSLRTEDTAVYYCARDPPTSNSDWVSLHFDHWGQGTLVTVSS
notes: HCAb (heavy chain-only, human IgG1 Fc), no light chain
B8: PR005343 (antibody, human IgG1, V domains shown)
VH: EVQLVESGGGLVKPGGSLRLSCVASGFTFSDYYMSWIRQAPGKGMEWISYISSSGSTKNYANSVKGRFTISRDNAKNSLYLQMNSLRAEDTAAYYCARVPPYNASWYEDFDYWGQGTLVTVSS
notes: as for B7
B9: PR005347 (antibody, human IgG1, V domains shown)
VH: B8 VH with A24T, S53T, S54T, N77S, Y102S
notes: as for B7
B10: PR005345 (antibody, human IgG1, V domains shown)
VH: EVQLVESGGGLVKPGGSLRLSCAASGFTFSDYYMSWIRQAPGKGLEWIAYISSSGSTIHYSDSVKGRFTISRDNAKNSLYLQMNSLRAEDTAVYYCARDTPSSSSDWVSLQFDYWGQGTPVTVSS
notes: as for B7
B11: PR005348 (antibody, human IgG1, V domains shown)
VH: B7 VH with I28T, A40T, S53R, I58K, H59Y, V70I, T88A, P100A, T102S
notes: as for B7
B12: PR005338 (antibody, human IgG1, V domains shown)
VH: B10 VH with A49S, S56T, S61A, A88T, T100A, S104N, P120L
notes: as for B7
B13: PR005344 (antibody, human IgG1, V domains shown)
VH: EVQLVESGGGLVKPGGSLRLSCAASGFTFSDYYMSWIRQAPGKGLEWISYISNSSSSISYANSVKGRFTVSRDNAKNSLYLQMNSLRAEDTALYYCARSPRGAFYEDFDYWGQGTLVTVSS
notes: as for B7
B14: PR005346 (antibody, human IgG1, V domains shown)
VH: EVQLVESGGGLVKPGGSLRLSCAASGFTLSDYYMSWIRQAPGKGLEWVSNISKNGFTIYYAESVKGRFTVSRDNAKNSLYLQMNSLRAEDTAIYYCARDSSGWYSEFDYWGQGTLVTVSS
notes: as for B7
B15: PR005350 (antibody, human IgG1, V domains shown)
VH: EVQLVESGGGLVKPGGSLRLSCAASGFTLSDSQMSWIRQAPGKGVEWVSYISSSGNTIYYGDSVKGRFTISRDNAKNSLFLQMNSLRAEDTAVYYCARVPPSSSNWYEDFDIWGQGTLVTVSS
notes: as for B7
B16: PR005351 (antibody, human IgG1, V domains shown)
VH: QVQLVESGGGLVKPGGSLRLSCAASGFKLSDFQMSWIRQAPGKGLEWVAYIDTNGSTRYYAESVKGRFTLSRDNVKNSLNLQMNGLRAEDTALYYCARIPSYTSSWYEDFDHWGQGTLVTVSS
notes: as for B7
B17: PR005339 (antibody, human IgG1, V domains shown)
VH: EVQLVESGGGLVKPGGSLKLSCAASGFTFSDYYMSWIRQAPGKGVEWISYISNNGSTIHYADSVKGRFTISRDNAKNSLYLQMNSLRAEDTAVYYCARDFNNGWYEDFDYWGQGTLVTVSS
notes: as for B7
B18: PR005342 (antibody, human IgG1, V domains shown)
VH: EVQLVESGGGLVKPGGSLRLSCAASGFNFSDYYMSWIRQAPGKGLEWISYISNSSSTIYYADSVKGRFTISRDNAKNSLYLQMSRLRAEDTAMYYCARDTTNGWYEDFDYWGQGTLVTVSS
notes: as for B7
B19: PR303155 (antibody, human IgG1, V domains shown)
VH: B17 VH with K19R, F29L, V45L, N53S, H59Y, K76R, V93L, F100V, N101S, N102S
notes: as for B7
B20: PR005341 (antibody, human IgG1, V domains shown)
VH: EVQLVESGGGLVKPGGSLRLSCVASGFTFSDYYMSWIRQAPGKGLEWISYISSSGSSIYYAESVKGRFTISRDNAKNSLYLQMNRLRAEDTALYYCARTPPSSDNWYEDFDYWGQGALVTVSS
notes: as for B7
B21: PR303189 (antibody, human IgG1, V domains shown)
VH: EVQLVESGGGLVKPGGSLRLSCAASGFNLSDSYMSWIRQAPGKGLEWVSCISSSGSTIYYADSVKGRFTVSRDNAKNSLYLQMNHLRAEDTALYYCARDCVIGIRDDSDIWGQGTMVTVSS
notes: as for B7
B22: PR303199 (antibody, human IgG1, V domains shown)
VH: EVQLVESGGGLVKPGGSLRLSCAASGFTFSDYYMSWIRQAPGKGLEWIAYISSSGSTIYYADSVKGRFTISRDNAKNSLYLQMNSLRAEDTAIYYCAREYYGSENYDHFDYWGQGTLVTVSS
notes: as for B7
B23: PR303145 (antibody, human IgG1, V domains shown)
VH: QVQLVESGGGLVKPGGSLRISCAASGFTFSNYNMSWIRQAPGKGVEWVSHISGSGRTIYYAESVKGRFTISRDNAKNSLYLQMNSLRAEDTAMYYCARDLSSGWYEDFDYWGQGTLVTVSS
notes: as for B7
B24: PR007419 (antibody, V domains shown)
VH: B1 VH with D109S
notes: as for B1
B25: PR007420 (antibody, V domains shown)
VH: B1 VH with N52S, T53S, R54S, P57T, I58R, G59Y, D109S
notes: as for B1
B26: PR007421 (antibody, V domains shown)
VH: B1 VH with N52D, T53S, R54S, S56R, I58L, G59A, D109S
notes: as for B1
B27: PR007422 (antibody, V domains shown)
VH: B1 VH with N52D, T53S, R54S, S56R, I58L, G59A, M100I, D109S
notes: as for B1
B28: PR007423 (antibody, V domains shown)
VH: B1 VH with F32Y, N52D, T53S, R54S, S56R, I58L, G59A, M100I
notes: as for B1
B29: PR007424 (antibody, V domains shown)
VH: B1 VH with F32Y, N52D, T53S, R54S, S56R, I58L, G59A, D109S
notes: as for B1
B30: PR007411 (antibody, V domains shown)
VH: B1 VH with N52S, T53S, R54S, P57T, G59H
notes: as for B1
B31: PR007408 (antibody, V domains shown)
VH: B1 VH with N52S, T53S, R54S, P57Y, G59H
notes: as for B1
B32: PR007409 (antibody, V domains shown)
VH: B1 VH with N52S, T53S, R54S, P57W, G59H, M100I
notes: as for B1
B33: PR007410 (antibody, V domains shown)
VH: B1 VH with N52S, T53S, R54S, P57Y, G59H, M100I
notes: as for B1

The binders below were run against human ROR1 on cells (HEK293T-hROR1, PANC-1, A549) (human) (UniProt Q01973) (assay: flow cytometry on PANC-1 cells, MFI (Median-APC) [middle panel, letter not given]).

binding, binds:
B1
B2
B3
B4
B5
B6

Each binder was assayed against cynomolgus ROR1 on CHO-K1-cynoROR1 cells (cynomolgus monkey) (assay: flow cytometry, CHO-K1-cynoROR1 cells).

binding, binds:
B7
B8
B9
B10
B11
B12
B13
B14
B15
B16
B17
B18
B19
B20
B21
B22
B23

The binders below were run against human ROR1 on cells (HEK293T-hROR1, PANC-1, A549) (human) (UniProt Q01973) (assay: flow cytometry, PANC-1 cells).

binding, binds:
B7
B8
B9
B10
B11
B12
B13
B14
B15
B16
B17
B18
B20

These binders were tested against human ROR1 on cells (HEK293T-hROR1, PANC-1, A549) (human) (UniProt Q01973) (assay: flow cytometry on PANC-1 cells, MFI (Median-APC) [bottom panel, letter not given]).

binding, binds:
B24
B25
B26
B27
B28
B29

These binders were tested against cynomolgus ROR1 on CHO-K1-cynoROR1 cells (cynomolgus monkey) (assay: flow cytometry on CHOK1-cynoROR1 cells, MFI (APC-A Median) [top panel]).

binding, binds:
B7
B8
B9
B17
B18
B20

The binders below were run against cynomolgus ROR1 on CHO-K1-cynoROR1 cells (cynomolgus monkey) (assay: flow cytometry on CHOK1-cynoROR1 cells, MFI (APC-A Median) [middle panel, letter not given]).

binding, binds:
B10
B11
B12
B13
B14
B15
B16

The binders below were run against human ROR1 on cells (HEK293T-hROR1, PANC-1, A549) (human) (UniProt Q01973) (assay: flow cytometry on PANC-1 cells, MFI (Median-APC) [top panel]).

binding, binds:
B30
B31
B32
B33

What follows are binders tested against human ROR1 on cells (HEK293T-hROR1, PANC-1, A549) (human) (UniProt Q01973) (assay: flow cytometry on PANC-1 cells, MFI (FITC-A Median)).

binding, binds:
B10
B11
B12
B13
B14
B15
B16

These binders were tested against human ROR1 on cells (HEK293T-hROR1, PANC-1, A549) (human) (UniProt Q01973) (assay: flow cytometry on PANC-1 cells, MFI (APC-A Median)).

binding, binds:
B7
B8
B9
B17
B18
B20
